PubChem BioAssay AID1259405, NCATS, 2018
This is one part, drawn at random, of about 50,000 reagents. In the full data, about 4,000 (8%) were called active. 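Mouse siRNA library applied to hamster cells; one well for each siRNA.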 The numbers tell different reagents against one gene apart. No sequences are given here.

Purpose: 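Mouse-designed siRNAs used to find CHO productivity engineering targets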 (primary screen)
Cell system: Chinese hamster CHO-K1 ovary cells with stable secreted eGFP expression
Knock-down reagent: single siRNA against mouse genes, 0.8 pmol siRNA per well (2 µl of 400 nM stock)
Timing: 3 days
Read-out: 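Per-well intracellular GFP measured by laser scanning cytometry, plus viability from ATP luminescence, each relative to plate median of non-targeting control wells, in %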
Direction: GFP, % of control: higher = more GFP per well, higher productivity; viability (ATP), % of control: higher = more viable cells (more ATP)
Call rule: 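Called active when intracellular GFP, relative to negative control, is at or above 120%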

{"gene": "Wrn", "reagent no.": 1, "GFP, % of control": 78.8, "viability (ATP), % of control": 65.7, "call": "inactive"}
{"gene": "Wrn", "reagent no.": 2, "GFP, % of control": 99.5, "viability (ATP), % of control": 73.2, "call": "inactive"}
{"gene": "Wrn", "reagent no.": 3, "GFP, % of control": 86, "viability (ATP), % of control": 86.1, "call": "inactive"}
{"gene": "Bgn", "reagent no.": 1, "GFP, % of control": 91.3, "viability (ATP), % of control": 96.6, "call": "inactive"}
{"gene": "Bgn", "reagent no.": 2, "GFP, % of control": 82.6, "viability (ATP), % of control": 82.1, "call": "inactive"}
{"gene": "Bgn", "reagent no.": 3, "GFP, % of control": 43.3, "viability (ATP), % of control": 39, "call": "inactive"}
{"gene": "C1qtnf7", "reagent no.": 1, "GFP, % of control": 45.2, "viability (ATP), % of control": 38.8, "call": "inactive"}
{"gene": "C1qtnf7", "reagent no.": 2, "GFP, % of control": 84.7, "viability (ATP), % of control": 49.3, "call": "inactive"}
{"gene": "C1qtnf7", "reagent no.": 3, "GFP, % of control": 59.3, "viability (ATP), % of control": 43.3, "call": "inactive"}
{"gene": "Or1p1", "reagent no.": 1, "GFP, % of control": 175, "viability (ATP), % of control": 67.6, "call": "active"}
{"gene": "Or1p1", "reagent no.": 2, "GFP, % of control": 27.2, "viability (ATP), % of control": 63.9, "call": "inactive"}
{"gene": "Or1p1", "reagent no.": 3, "GFP, % of control": 55.4, "viability (ATP), % of control": 92, "call": "inactive"}
{"gene": "Or1p1", "reagent no.": 4, "GFP, % of control": 132, "viability (ATP), % of control": 104, "call": "active"}
{"gene": "Or1p1", "reagent no.": 5, "GFP, % of control": 107, "viability (ATP), % of control": 105, "call": "inactive"}
{"gene": "Or1p1", "reagent no.": 6, "GFP, % of control": 138, "viability (ATP), % of control": 111, "call": "active"}
{"gene": "Zfp385b", "reagent no.": 1, "GFP, % of control": 53.9, "viability (ATP), % of control": 92, "call": "inactive"}
{"gene": "Zfp385b", "reagent no.": 2, "GFP, % of control": 59.5, "viability (ATP), % of control": 66.9, "call": "inactive"}
{"gene": "Zfp385b", "reagent no.": 3, "GFP, % of control": 70, "viability (ATP), % of control": 105, "call": "inactive"}
{"gene": "Ptch2", "reagent no.": 1, "GFP, % of control": 93.2, "viability (ATP), % of control": 122, "call": "inactive"}
{"gene": "Ptch2", "reagent no.": 2, "GFP, % of control": 76.2, "viability (ATP), % of control": 71.3, "call": "inactive"}
{"gene": "Cdc20", "reagent no.": 1, "GFP, % of control": 58.2, "viability (ATP), % of control": 66.7, "call": "inactive"}
{"gene": "Cdc20", "reagent no.": 2, "GFP, % of control": 128, "viability (ATP), % of control": 122, "call": "active"}
{"gene": "Sowahc", "reagent no.": 1, "GFP, % of control": 89.2, "viability (ATP), % of control": 77.9, "call": "inactive"}
{"gene": "Sowahc", "reagent no.": 2, "GFP, % of control": 95, "viability (ATP), % of control": 80.9, "call": "inactive"}
{"gene": "Sowahc", "reagent no.": 3, "GFP, % of control": 81.8, "viability (ATP), % of control": 103, "call": "inactive"}

The list goes on, starting with the last 5 of the part before.
{"gene": "Cdc20", "reagent no.": 1, "GFP, % of control": 58.2, "viability (ATP), % of control": 66.7, "call": "inactive"}
{"gene": "Cdc20", "reagent no.": 2, "GFP, % of control": 128, "viability (ATP), % of control": 122, "call": "active"}
{"gene": "Sowahc", "reagent no.": 1, "GFP, % of control": 89.2, "viability (ATP), % of control": 77.9, "call": "inactive"}
{"gene": "Sowahc", "reagent no.": 2, "GFP, % of control": 95, "viability (ATP), % of control": 80.9, "call": "inactive"}
{"gene": "Sowahc", "reagent no.": 3, "GFP, % of control": 81.8, "viability (ATP), % of control": 103, "call": "inactive"}
{"gene": "Slc30a9", "reagent no.": 1, "GFP, % of control": 66.3, "viability (ATP), % of control": 68.3, "call": "inactive"}
{"gene": "Slc30a9", "reagent no.": 2, "GFP, % of control": 99.1, "viability (ATP), % of control": 58.7, "call": "inactive"}
{"gene": "Slc30a9", "reagent no.": 3, "GFP, % of control": 56.8, "viability (ATP), % of control": 86.7, "call": "inactive"}
{"gene": "Mix23", "reagent no.": 1, "GFP, % of control": 133, "viability (ATP), % of control": 119, "call": "active"}
{"gene": "Mix23", "reagent no.": 2, "GFP, % of control": 136, "viability (ATP), % of control": 134, "call": "active"}
{"gene": "Mix23", "reagent no.": 3, "GFP, % of control": 76.4, "viability (ATP), % of control": 92.8, "call": "inactive"}
{"gene": "Asb5", "reagent no.": 1, "GFP, % of control": 50.7, "viability (ATP), % of control": 55.1, "call": "inactive"}
{"gene": "Asb5", "reagent no.": 2, "GFP, % of control": 63.6, "viability (ATP), % of control": 85.3, "call": "inactive"}
{"gene": "Asb5", "reagent no.": 3, "GFP, % of control": 52.6, "viability (ATP), % of control": 54.2, "call": "inactive"}
{"gene": "Setd6", "reagent no.": 1, "GFP, % of control": 74.6, "viability (ATP), % of control": 87, "call": "inactive"}
{"gene": "Setd6", "reagent no.": 2, "GFP, % of control": 67.2, "viability (ATP), % of control": 78.8, "call": "inactive"}
{"gene": "Setd6", "reagent no.": 3, "GFP, % of control": 74.7, "viability (ATP), % of control": 56.3, "call": "inactive"}
{"gene": "Kctd8", "reagent no.": 1, "GFP, % of control": 94.9, "viability (ATP), % of control": 107, "call": "inactive"}
{"gene": "Kctd8", "reagent no.": 2, "GFP, % of control": 50, "viability (ATP), % of control": 47.8, "call": "inactive"}
{"gene": "Kctd8", "reagent no.": 3, "GFP, % of control": 53.5, "viability (ATP), % of control": 67.3, "call": "inactive"}
{"gene": "Adam2", "reagent no.": 1, "GFP, % of control": 70.1, "viability (ATP), % of control": 44.2, "call": "inactive"}
{"gene": "Adam2", "reagent no.": 2, "GFP, % of control": 148, "viability (ATP), % of control": 74, "call": "active"}
{"gene": "Adam2", "reagent no.": 3, "GFP, % of control": 103, "viability (ATP), % of control": 71.7, "call": "inactive"}
{"gene": "Zfp689", "reagent no.": 1, "GFP, % of control": 63.6, "viability (ATP), % of control": 53.1, "call": "inactive"}
{"gene": "Zfp689", "reagent no.": 2, "GFP, % of control": 65.9, "viability (ATP), % of control": 59.1, "call": "inactive"}
{"gene": "Zfp689", "reagent no.": 3, "GFP, % of control": 111, "viability (ATP), % of control": 101, "call": "inactive"}
{"gene": "Tm9sf3", "reagent no.": 1, "GFP, % of control": 82.7, "viability (ATP), % of control": 74.4, "call": "inactive"}
{"gene": "Tm9sf3", "reagent no.": 2, "GFP, % of control": 75.8, "viability (ATP), % of control": 73.4, "call": "inactive"}
{"gene": "Tm9sf3", "reagent no.": 3, "GFP, % of control": 107, "viability (ATP), % of control": 77.7, "call": "inactive"}
{"gene": "Tmem164", "reagent no.": 1, "GFP, % of control": 101, "viability (ATP), % of control": 39, "call": "inactive"}
{"gene": "Tmem164", "reagent no.": 2, "GFP, % of control": 54.8, "viability (ATP), % of control": 77.2, "call": "inactive"}
{"gene": "Tmem164", "reagent no.": 3, "GFP, % of control": 76.5, "viability (ATP), % of control": 87.8, "call": "inactive"}
